Source: patent US20190071518A1 (PIERRE FABRE MEDICAMENT, published 2019)
Results are given in words; binding and its absence hold for the method and conditions named. Some results given as binding are weak or reduced against the parent protein; the word gives no strength.

By UniProt entry, the sequences of proteins in these tests, tags left out. Where a name states a change or a piece, a line headed by the entry shows the natural chain unless it says otherwise.
UniProt P78536: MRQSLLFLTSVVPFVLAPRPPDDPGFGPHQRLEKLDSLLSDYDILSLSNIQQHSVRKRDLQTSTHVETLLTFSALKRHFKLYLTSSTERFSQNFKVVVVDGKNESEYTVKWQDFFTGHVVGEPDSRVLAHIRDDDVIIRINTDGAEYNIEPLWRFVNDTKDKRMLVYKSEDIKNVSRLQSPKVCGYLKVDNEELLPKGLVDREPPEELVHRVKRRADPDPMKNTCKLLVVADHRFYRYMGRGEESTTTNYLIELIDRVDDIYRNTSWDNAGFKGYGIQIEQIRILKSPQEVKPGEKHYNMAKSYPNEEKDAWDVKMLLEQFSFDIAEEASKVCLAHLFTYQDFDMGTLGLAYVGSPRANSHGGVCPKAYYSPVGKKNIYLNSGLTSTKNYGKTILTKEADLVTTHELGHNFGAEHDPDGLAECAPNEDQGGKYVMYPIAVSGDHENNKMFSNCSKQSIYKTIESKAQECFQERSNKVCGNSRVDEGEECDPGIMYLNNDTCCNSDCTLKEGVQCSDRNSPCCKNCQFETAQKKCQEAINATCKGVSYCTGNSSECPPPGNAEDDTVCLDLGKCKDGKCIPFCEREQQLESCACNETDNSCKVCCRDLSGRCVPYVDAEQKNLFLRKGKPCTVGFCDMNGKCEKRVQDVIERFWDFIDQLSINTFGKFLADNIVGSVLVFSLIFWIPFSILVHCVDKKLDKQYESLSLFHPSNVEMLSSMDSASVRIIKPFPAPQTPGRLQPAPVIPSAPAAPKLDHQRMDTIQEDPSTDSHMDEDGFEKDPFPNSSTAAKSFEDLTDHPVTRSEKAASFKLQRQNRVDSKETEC

Experiments:
[1] = biological target: human ADAM17 H1-671 (P-C-D-MPD) human Fc fusion (human) (UniProt P78536); assay: western blot, non-reducing, 1 µg/ml 1022C3
[2] = biological target: human ADAM17 H457-671 (D-MPD) human Fc fusion (human) (UniProt P78536); assay: western blot, non-reducing, 1 µg/ml 1022C3
[3] = biological target: human ADAM17 H1-671 (P-C-D-MPD) human Fc fusion (human) (UniProt P78536); assay: SPR (Biacore X100), 1022C3 captured, analyte 250 nM
[4] = biological target: human ADAM17 H457-671 (D-MPD) human Fc fusion (human) (UniProt P78536); assay: as above

Measured: binding

B1: murine monoclonal antibody 1022C3 (antibody, V domains shown)
VH: QVTLKESGPGILQPSQTLSLTCSFSGFSLNTSGMGVSWIRQPSGKGLEWLAHIYWDDDKRYNPSLKSRLTISKDTSSNQVFLKITSLDTADTATYYCARRSHFGNYYYAMDYWGQGTSVTVTS
VL: DVQMTQTTSSLSASLGDRVTISCRASQDISSYLNWYQQKPDGTFKLLIFYTSRLQSGVPSKYSGSGSGTDYSLTISNLEQEDIAAYFCQQGKTLPLTFGAGTKLELK
modifications: N-glycosylated asparagine in CDR-H1
notes: Murine IgG from hybridoma I-4686, captured by anti-mouse antibody in the SPR assays; also called m1022C3; mAb 1022C3
binds: [1] | [2] | [3] | [4]
